# Test results: PubChem BioAssay AID485353 (National Center for Advancing Translational Sciences (NCATS), 2010)
# Among all 330,000 compounds or so, about 610 (0.18%) were called active. The inconclusive results got no clear call from the source; some entries with a clear call stand among them for comparison. The call rests on the fitted dose curve. Where the call is inconclusive, the potency comes from a doubtful curve fit.
# Assay: qHTS of Yeast-based Assay for SARS-CoV PLP; further: nearly all actives have a fitted effect of over 55% in size; on activity, positive = growth rescue: 0% is about no effect
# Conditions: S. cerevisiae expressing SARS-CoV PLpro; Potency: growth rescue; activity, positive = growth rescue: at 32.9 µM (top of the series)
# Potency means the concentration at half of the fitted maximal effect.
Compound,Potency,"activity, positive = growth rescue"
O=C(NCc1ccc(F)cc1)C1CCCN1C(=O)Nc1cccc(F)c1 (stereo not given),"inconclusive: 1 µM [activator, partial curve]",
CC1(C)CC(N2CCC(=O)N(C3CC(C)(C)NC(C)(C)C3)C2)CC(C)(C)N1,"inconclusive: 20 µM [activator, single point]",
CC1=CC(C)(C)NC(=S)N1c1cccc(C)c1,"inconclusive: 10 µM [activator, partial curve]",
CCc1cc2cccc(C)c2nc1SCC(=O)c1ccc(NC(C)=O)cc1,"inconclusive: 4.47 µM [activator, single point]",
FC(F)Oc1ccc(NC(=S)NC23CC4CC(CC(C4)C2)C3)cc1,"inconclusive: 12.6 µM [activator, partial curve]",
CC1Cc2ccccc2N1C(=O)CN1C(=O)COc2ccccc21 (stereo not given),,inactive: 5.05%
CCOC(=O)C1=C(N)N(c2ccc(N3CCCCC3)cc2)C(=O)C1,"inconclusive: 0.398 µM [activator, full curve, poor fit]",
O=C(Cc1ccccc1)NCCc1c[nH]c2ccccc12,"inconclusive: 4.47 µM [activator, single point]",
Cc1ccc(NC(=O)CCc2ccc(C)o2)c(Br)c1,"inconclusive: 14.1 µM [activator, single point]",
Cc1ccc(NC(=S)NCc2cccs2)c(C)c1,"inconclusive: 11.2 µM [activator, partial curve]",
Fc1ccc(NC(=S)NC2CC3CCC(C2)N3Cc2ccco2)cc1 (stereo not given),,inactive: 0.216%
Cc1ccc2oc(C(=O)Nc3ccc(S(=O)(=O)Nc4onc(C)c4C)cc3)c(C)c2c1,"inconclusive: 2 µM [activator, partial curve, poor fit]",
CC(=O)Oc1ccc(-c2csc(Nc3ccc(Cl)cn3)n2)cc1,"inconclusive: 3.98 µM [activator, partial curve]",
COc1cccc(-c2sc3ccc(OC)cc3c2-c2ccc(O)cc2)c1,,inactive: -4.38%
Cc1ccccc1NC(=O)Cc1nnc(SCC(=O)N2CCN(c3ccccc3)CC2)n1C,"inconclusive: 20 µM [activator, single point]",
Cc1ccccc1-c1cn(-c2ccccc2)c(=S)[nH]1,"inconclusive: 20 µM [activator, single point]",
COc1ccccc1C/C(N)=N/OC(=O)COc1ccc2ccccc2c1,"inconclusive: 3.16 µM [activator, single point]",
O=C(Cn1c2ccccc2c(=O)c2ccccc21)N/N=C/c1ccc(N2CCCC2)c([N+](=O)[O-])c1,"inconclusive: 0.398 µM [activator, full curve, poor fit]",
Cc1ccc(Cl)cc1NS(=O)(=O)c1cc2[nH]c(=O)c(=O)[nH]c2cc1C,"inconclusive: 0.398 µM [activator, full curve]",
CCN(CC)S(=O)(=O)c1ccc(N2CCOCC2)c(NC(=O)CCOc2ccccc2)c1,,inactive: -4.45%
COc1cc(/C=N/NC(=O)c2cnccn2)ccc1O,active: 3.55 µM,
O=C(CCc1ccc(O)c(O)c1)N/N=C/c1cc2c(cc1[N+](=O)[O-])OCO2,"inconclusive: 14.1 µM [activator, partial curve]",
O=[N+]([O-])/C=C1\C=CC=CN1Cc1ccc(Cl)cc1,,inactive: 1.12%
Cc1nc2ncnn2c(C)c1CCC(=O)NCCc1ccccc1,,inactive: 0.708%

# 4 entries from above, reformatted:
Compound | Potency | activity, positive = growth rescue
CC1(C)CC(N2CCC(=O)N(C3CC(C)(C)NC(C)(C)C3)C2)CC(C)(C)N1 | inconclusive: 20 µM [activator, single point] | 
Cc1ccc(NC(=O)CCc2ccc(C)o2)c(Br)c1 | inconclusive: 14.1 µM [activator, single point] | 
Cc1ccccc1NC(=O)Cc1nnc(SCC(=O)N2CCN(c3ccccc3)CC2)n1C | inconclusive: 20 µM [activator, single point] | 
Cc1ccccc1-c1cn(-c2ccccc2)c(=S)[nH]1 | inconclusive: 20 µM [activator, single point] | 

# Next part

Compound,Potency,"activity, positive = growth rescue"
Cc1cccc(NC(=S)NC2CCCC2)c1,"inconclusive: 20 µM [activator, single point]",
O=C(COC(=O)c1cc(S(=O)(=O)N2CCCCC2)ccc1N1CCOCC1)c1ccc(Cl)cc1,,inactive: 2.47%
O=C(Nc1cc(=O)[nH]c(=O)[nH]1)c1cc(Cl)ccc1Cl,"inconclusive: 0.891 µM [activator, full curve, poor fit]",
Cc1n[nH]c(=S)c2nn(-c3ccccc3F)c(C)c12,"inconclusive: 2.82 µM [activator, partial curve]",
Cc1ccc(C(=O)NCCSCc2ccc(Cl)cc2Cl)cc1[N+](=O)[O-],,inactive: -44%
CCOC(=O)C1=C(CSc2nc3ccccc3s2)NC(=O)NC1c1cc(C)ccc1C (stereo not given),,inactive: -0.818%
Cc1ccc(CN2CCN(CC(=O)N/N=C/c3ccc(C)o3)CC2)cc1,"inconclusive: 20 µM [activator, single point]",
CCOC(=O)Cn1c(=N)n(Cc2ccccc2)c2ccccc21,"inconclusive: 20 µM [activator, single point]",
CCOC(=O)/C(=C\Nc1ccc(OC(F)(F)F)cc1)Sc1ncc(C(F)(F)F)cc1Cl,,inactive: -6.52%
Cc1ccc(S(=O)(=O)Nc2cccc(-n3cnnn3)c2)cc1C(=O)O,"inconclusive: 20 µM [activator, single point]",
COC(=O)c1ccc(C(=S)NCC2(N(C)C)CCCCC2)cc1,,inactive: 6.52%
Cn1c(-c2cccc([N+](=O)[O-])c2)cnc1NCc1ccc(C#N)cc1,,inactive: -0.449%
Cc1cc(C(=O)c2cccs2)c(N)s1,"inconclusive: 14.1 µM [activator, single point]",
C[n+]1ccc(/C=C/c2ccc(Br)cc2)cc1,,inactive: -5.87%
Cc1ccc(C(=O)CNc2ccc(C)c(Cl)c2)cc1,"inconclusive: 3.55 µM [activator, single point]",
CN(C(=O)CSc1nc(-c2ccc(C(C)(C)C)cc2)c(C#N)c(=O)[nH]1)C1CCCCC1,"inconclusive: 0.355 µM [activator, partial curve, poor fit]",
O=C(c1ccco1)[C@@H]1[C@@H]2C(=O)N(c3ccc(F)cc3)C(=O)[C@@H]2C2c3ccccc3C=CN21 (stereo not given in full),"inconclusive: 11.2 µM [activator, single point]",
O=C(O)c1ccn2c(C(=O)c3ccccc3)c(-c3ccccc3)cc2c1,,inactive: -3.78%
CCOC(=O)N1CCN(C2=NC3(CCCCC3)C(C#N)C(=O)N2)CC1 (stereo not given),"inconclusive: 4.47 µM [activator, single point]",
O=C(CSc1nc(-c2ccco2)cc(C(F)(F)F)n1)NCCc1ccccc1,,inactive: -1.29%
O=C(NCc1ccccc1)c1ccc2c(=O)n(CCCN3CCCC3=O)c(=S)[nH]c2c1,"inconclusive: 4.47 µM [activator, single point]",
COc1ccccc1CN1CC(C(=O)N(C)Cc2ccncc2C)CCC1=O (stereo not given),,inactive: 0.673%
COc1ccc2[nH]c(C(=O)O)c(NS(=O)(=O)c3ccc(C)cc3C)c2c1,"inconclusive: 3.98 µM [activator, single point]",
CN(C)c1cc[n+](CC(=O)c2ccc(Br)cc2)cc1,,inactive: 0.35%

Compound,Potency,"activity, positive = growth rescue"
CCOc1ccc(CCNC(=O)C(C)n2nc(C)c3c(C)n(-c4ccccc4)nc3c2=O)cc1 (stereo not given),"inconclusive: 17.8 µM [activator, single point]",
Nc1nc(=S)c2ncn(C3CCCC3)c2[nH]1,,inactive: 4.89%
COc1cccc(C(=O)Oc2c(CN3CCOCC3)cc(Cl)c3cccnc23)c1,"inconclusive: 12.6 µM [activator, single point]",
Cc1ccc(NC(=S)Nc2ccc3nc(-c4ccccn4)c(-c4ccccn4)nc3c2)cc1C,"inconclusive: 11.2 µM [activator, single point]",
O=C(NCc1ccc2c(c1)OCO2)c1ccc2c(c1)C(=O)N(Cc1cccnc1)C2=O,"inconclusive: 4.47 µM [activator, single point]",
CC(C)N(CCNC(=O)C1CCCN(c2ncnc3c2nc2n3CCCCC2)C1)Cc1ccccc1 (stereo not given),"inconclusive: 15.8 µM [activator, single point]",
CCCCOc1ccc(C(=O)NCCc2ccccc2)cc1,"inconclusive: 3.98 µM [activator, single point]",
O=C(Nc1nc(COc2ccccc2)cs1)C12CC3CC(CC(C3)C1)C2,"inconclusive: 20 µM [activator, single point]",
Cc1ccc(-c2csc(NC(=O)CSc3ncn(-c4ccccc4)n3)n2)cc1,"inconclusive: 15.8 µM [activator, single point]",
CCn1cc(C(=O)O)c(=O)c2cc(F)c(N3CCN(C(=S)NC(=O)c4ccccc4)CC3)cc21,,inactive: -2.42%
Cc1cccc(NC(=O)CSCC(=O)N2CCN(Cc3ccc4c(c3)OCO4)CC2)c1,,inactive: 4.36%
CN(CC(=O)Nc1cccc(F)c1)C(=O)c1ccc(N2CCCC2)c([N+](=O)[O-])c1,,inactive: -2.49%
Cc1[nH]nc2c1C(c1cn[nH]c1-c1ccc(F)cc1)C(C#N)=C(N)O2 (stereo not given),"inconclusive: 4.47 µM [activator, single point]",
N/C(=N\OC(=O)c1ccc(Cl)c(Cl)c1)c1cccc(CSc2ccccn2)c1,,inactive: 0.538%
O=C1NCCCC1C(=O)N/N=C/c1ccccc1 (stereo not given),"inconclusive: 3.98 µM [activator, single point]",
Cc1cc(SCC(=O)N/N=C/c2ccc(O)cc2O)c(C)cc1Br,active: 10 µM,
CCN(CC)C(=O)C(=O)c1c(-c2ccccc2)[nH]c2ccccc12,"inconclusive: 20 µM [activator, single point]",
Cc1ccc(NC(=O)CN2C(=O)N/C(=C/c3ccc4c(c3)OCCO4)C2=O)cc1,,inactive: 1.62%
CC(C(=O)NCc1ccc2c(c1)OCO2)N1c2cccc3cccc(c23)S1(=O)=O (stereo not given),"inconclusive: 4.47 µM [activator, single point]",
C=CCSc1nnc2c(n1)OC(c1c(C)[nH]n(-c3ccccc3)c1=O)Nc1ccccc1-2 (stereo not given),"inconclusive: 20 µM [activator, single point]",
Cc1cccc(OCC(=O)NNC(=O)Cn2c(=O)cnc3ccccc32)c1,"inconclusive: 20 µM [activator, single point]",
Cc1ccc(C)c(NC(=O)CSc2ccc(-c3ccco3)nn2)c1,"inconclusive: 7.94 µM [activator, partial curve]",
